# Data taken from patent publication US5648336A (University of Colorado, priority 1994, dated 1997).
# At least one peptide structure holds a part that was inferred or is arguable (an end, a ring closure or a residue).
# What was measured:
# [1] = tested on: hypotensive action of bradykinin; assay: Blood pressure in the anesthetized rat: inhibition of hypotensive action of bradykinin; format: in vivo; details: intraarterial bolus mixture with BK, 500 g male rat; indicated approximately
# Excerpt: Potencies for the antagonists in this assay are not reported precisely, but rather are indicated approximately.
# On isolated smooth muscles, agonist potency is given as percent of BK potency; antagonist potency is given as pA2, and is underlined. In blood pressure assays, the number is the dose of peptide in micrograms that causes 50% reduction in the effect of BK intraarterially administered as a bolus mixture in a 500 g male rat; Ag indicates unquantitated agonist activity; Ant indicates unquantitated antagonist activity.
# B1 receptors = target: T1, B1 receptors (Canis lupus familiaris, UniProt Q9BDQ5); assay: Dog blood pressure, hypotensive response to des-Arg9-BK; format: in vivo; details: at 4 hours after infusion
# T1 construct: Mongrel dogs of either sex, weight range 10-15 kg were used; from tissue; host or cells: anaesthetized mongrel dog, whole animal
# T1 sequence (Q9BDQ5 1-350): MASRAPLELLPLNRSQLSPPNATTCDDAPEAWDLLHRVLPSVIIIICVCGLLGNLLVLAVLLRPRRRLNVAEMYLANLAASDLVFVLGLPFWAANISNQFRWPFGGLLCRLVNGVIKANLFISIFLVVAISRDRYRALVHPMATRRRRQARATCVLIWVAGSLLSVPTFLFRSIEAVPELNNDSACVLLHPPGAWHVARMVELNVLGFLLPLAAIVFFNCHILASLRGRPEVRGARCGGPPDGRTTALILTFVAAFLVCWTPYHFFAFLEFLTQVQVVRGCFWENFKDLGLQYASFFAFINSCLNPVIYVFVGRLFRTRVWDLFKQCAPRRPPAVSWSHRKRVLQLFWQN
smiles,measurement,setting,value
"COc1cc(C=CC(=O)N[C@H](CCCNC(=N)N)C(=O)N[C@@H](CCCNC(=N)N)C(=O)N2CCC[C@H]2C(=O)N2C[C@H](O)C[C@H]2C(=O)NCC(=O)N[C@@H](Cc2cccs2)C(=O)N[C@@H](CO)C(=O)N[C@@H](C(=O)N2[C@H](C(=O)N[C@@H](CCCNC(=N)N)C(=O)O)C[C@@H]3CCCC[C@@H]32)C2Cc3ccccc3C2)cc(OC)c1O [Compound 60, Sin-DArg-Arg-Pro-Hyp-Gly-Thi-Ser-DIglb-Oic-Arg]",Blood Pressure: dose of peptide that causes 50% reduction in the effect of BK,[1],0.05 micrograms
"N=C(N)NCCC[C@@H](N)C(=O)N[C@@H](CCCNC(=N)N)C(=O)N1CCC[C@H]1C(=O)N1C[C@H](O)C[C@H]1C(=O)NCC(=O)N[C@H](C(=O)N[C@@H](CO)C(=O)N[C@@H](C(=O)N1[C@H](C(=O)N[C@@H](CCCNC(=N)N)C(=O)O)C[C@@H]2CCCC[C@@H]21)C1Cc2ccccc2C1)C1Cc2ccccc2C1 [Compound 1, DArg-Arg-Pro-Hyp-Gly-Iglb-Ser-DIglb-O ic-Arg]",Duration of action: block of response to des-Arg9-BK,B1 receptors,100%
